# Test results taken from publication PMC8815872 (PLoS ONE, 2022).
# Assay: peptide made by a vendor (Fmoc solid-phase peptide synthesis)
# Conditions: whole synthesis
substance,measurement,value
SYPIPDT-GHEG-ECG-K-tetramethylrhodamine,final purity (method not given),greater than 90%
